Laboratory results taken from PubChem BioAssay (NCATS).
Inconclusive results, whose numbers are uncertain, are shown with a selection of clear calls. A potency beside an inconclusive call is a rough fit, not a confirmed value. Calls of active or inactive are those of the source. Calls follow the shape of the dose curve; as a rule, active = well fitted curve in the direction sought with a large enough effect; inconclusive = small, poorly fitted or top-dose-only effect, or another doubt; inactive = no such curve, though single readings can be large; an effect the other way counts as inactive or inconclusive.

System: not listed separately
Experiment: qHTS of pediatric cancer cell lines to identify multiple opportunities for drug repurposing: Primary screen for Rh41 cells (AID 1347108); also: nearly all actives have a fitted effect of over 70% in size;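 as to activity change, negative = cytotoxic: luminescence drop marks cytotoxic hits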
Conditions: Rh41 rhabdomyosarcoma viability, CellTiter-Glo luminescence, 48 h; series mostly up to 46 µM; activity change, negative = cytotoxic: at the top concentration
Outline: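 Readout: CellTiter-Glo luminescence, 48 h treatment. Controls DMSO (neutral) and bortezomib 2.3 µM final (positive). Potency and efficacy taken from primary-screen concentration-response curves.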
Potency is read from the fitted curve at half-maximal effect.

SMILES	Potency	activity change, negative = cytotoxic
C[C@@H](O[C@H]1OCCN(Cc2n[nH]c(=O)[nH]2)[C@H]1c1ccc(F)cc1)c1cc(C(F)(F)F)cc(C(F)(F)F)c1	inconclusive: 29.9 µM [cytotoxic, single point]	–
C(=C\c1ccccc1)/CN1CCN(C(c2ccccc2)c2ccccc2)CC1	–	inactive: 1.45%
CCN(CC)CCOc1ccc2c(c1)C(=O)c1cc(OCCN(CC)CC)ccc1-2	inconclusive: 29.9 µM [cytotoxic, single point]	–
CN1CCc2cccc3c2[C@H]1Cc1ccc(O)c(O)c1-3	inconclusive: 21.1 µM [cytotoxic, single point]	–

System: Zika virus NS2B-NS3 protease (unlinked complex)
Experiment: Primary screen GU Rhodamine qHTS for Zika virus inhibitors: Unlinked NS2B-NS3 protease assay (AID 1347159); also: nearly all actives have a fitted effect of over 60% in size; as to activity change, negative = inhibition: % is scaled to controls: 0 for no effect and ±100 for the full control effect
Conditions: Recombinant ZIKV NS2B-NS3 protease, Rhodamine110 substrate fluorescence; series mostly up to 107 µM; activity change, negative = inhibition: at the top concentration
Outline: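 Enzyme 25 nM in Tris-HCl pH 8.0 + 0.01% Tween 20; compounds up to 114 microM, 15 min RT dark; + Rhod110 substrate 1.5 microM; read t0 and 15 min; delta fluorescence → % inhibition → 4-parameter Hill fit.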

SMILES	Potency	activity change, negative = inhibition
Nc1ncnc2c1nc(N)n2[C@@H]1O[C@H](CO)[C@@H](O)[C@H]1O	inconclusive: 100 µM [inhibitor, single point]	–
O=C(/C=C/c1ccc(O)c(O)c1)O[C@H]1[C@H](OC2CCCCC2O)O[C@H](CO)[C@@H](O)[C@@H]1O (stereo partly specified)	inconclusive: 17.8 µM [inhibitor, partial curve]	–
Cc1ccccc1-n1c([C@H](C)Nc2nc(N)nc3nc[nH]c23)nc2cccc(C)c2c1=O	–	inactive: 62.4%
CCOC(=O)c1cnn(-c2ccccc2)c1NC(=O)c1cc2nc(-c3ccco3)cc(C(F)(F)Cl)n2n1	inconclusive: 63.1 µM [inhibitor, partial curve, poor fit]	–
COc1ccc2nccc(C(=O)CC[C@@H]3CCN(CC#Cc4cc(F)cc(F)c4F)C[C@@H]3C(=O)O)c2c1	active: 25.1 µM	–
Cc1ccc(Nc2c(F)cccc2Cl)c(CC(=O)O)c1	–	inactive: -15.5%
N#CC(c1ccnc(OCc2ccc(CN3CCOCC3)cc2)n1)c1nc2ccccc2s1 (stereo unspecified)	active: 3.98 µM	–
